# Results deposited as PubChem BioAssay AID1508587 (Peter MacCallum Cancer Centre, 2020).
# Assay: 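Retest of knockdowns boosting BRAF inhibitor action on lactate release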 (follow-up of hits)
# System: human WM266.4 melanoma cells with a BRAF V600 mutation
# Reagents: single siRNA against human genes, 25 nM
# Time to read-out: 96 h
# Conditions: vemurafenib 300 nM (about IC25), given 48 h after transfection for 48 h
# Measured: 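Per-cell lactate from absorbance divided by DAPI nucleus counts, compared with and without vemurafenib, relative to non-targeting siRNA, mean of 2 replicates; nuclear counts also give cell number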
# Scale: lactate per cell, drug vs no drug: higher = less drug-induced drop in lactate per cell; lactate per cell with vemurafenib: higher = more lactate per cell under drug; lactate per cell without drug: higher = more lactate per cell without drug; cell growth with vemurafenib and cell growth without drug: higher = more cell growth over 48 h
# Active means: 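a duplex is active when its lactate-per-cell ratio with versus without drug falls under 0.55, i.e. 2 SD below non-targeting; a gene is confirmed if 2 or more of 4 duplexes pass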
# The whole screen tested about 1,600 reagents; shown is a random part of them. In the full data, 623 (39%) are marked active. 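Calls are for each duplex; lactate ratios contain extreme outliers.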 No sequences are given here.
target,PubChem SID,"lactate per cell, drug vs no drug",lactate per cell with vemurafenib,lactate per cell without drug,cell growth with vemurafenib,cell growth without drug,activity call
HIVEP2 (HIVEP zinc finger 2),SID134267205,0.52,1.19,1.52,0.79,0.55,active
HIVEP2 (HIVEP zinc finger 2),SID134267206,0.44,0.94,1.43,0.37,0.15,active
HIVEP2 (HIVEP zinc finger 2),SID134267207,0.48,0.97,1.29,0.49,0.66,active
HIVEP2 (HIVEP zinc finger 2),SID134267208,0.6,0.9,0.98,1.06,1.05,inactive
MED12 (mediator complex subunit 12),SID134245421,0.68,1.19,1.14,0.9,0.95,inactive
MED12 (mediator complex subunit 12),SID134245422,0.55,1.56,1.88,0.61,0.18,inactive
MED12 (mediator complex subunit 12),SID134245423,0.48,1.2,1.66,0.52,0.28,active
MED12 (mediator complex subunit 12),SID134245424,0.46,1.02,1.42,0.75,0.38,active
PRR30 (proline rich 30),SID134276197,0.42,1.2,1.76,0.43,0.39,active
PRR30 (proline rich 30),SID134276198,0.52,1.13,1.36,0.11,0.19,active
PRR30 (proline rich 30),SID134276199,0.6,0.58,0.62,0.24,0.53,inactive
PRR30 (proline rich 30),SID135615339,0.68,1.01,0.94,0.46,0.26,inactive
PRSS16 (serine protease 16),SID134235461,0.4,1.52,2.23,0.64,0.18,active
PRSS16 (serine protease 16),SID134235462,0.55,1.29,1.38,0.69,0.79,inactive
PRSS16 (serine protease 16),SID134235463,0.46,1.13,1.44,0.78,0.33,active
PRSS16 (serine protease 16),SID134235464,0.57,0.73,0.74,1.01,1.45,inactive
KATNB1 (katanin regulatory subunit B1),SID134255365,0.74,4.85,3.96,-0.14,-0.06,inactive
KATNB1 (katanin regulatory subunit B1),SID134255366,0.53,1.4,1.65,0.83,0.49,active
KATNB1 (katanin regulatory subunit B1),SID134255367,0.74,1.23,1.04,0.2,0.3,inactive
KATNB1 (katanin regulatory subunit B1),SID134255368,0.54,0.86,0.99,0.53,0.83,active
PCDHB14 (protocadherin beta 14),SID134260733,0.55,1.96,2.27,0.42,0.23,inactive
PCDHB14 (protocadherin beta 14),SID134260734,0.68,1.37,1.24,0.64,0.52,inactive
PCDHB14 (protocadherin beta 14),SID134260735,0.67,1.25,1.16,0.63,0.59,inactive
PCDHB14 (protocadherin beta 14),SID134260736,0.48,0.86,1.1,0.65,0.58,active

The list goes on; the last 3 above are carried over.
target,PubChem SID,"lactate per cell, drug vs no drug",lactate per cell with vemurafenib,lactate per cell without drug,cell growth with vemurafenib,cell growth without drug,activity call
PCDHB14 (protocadherin beta 14),SID134260734,0.68,1.37,1.24,0.64,0.52,inactive
PCDHB14 (protocadherin beta 14),SID134260735,0.67,1.25,1.16,0.63,0.59,inactive
PCDHB14 (protocadherin beta 14),SID134260736,0.48,0.86,1.1,0.65,0.58,active
KLC2 (kinesin light chain 2),SID134263297,0.53,0.88,1.19,0.29,0.45,active
KLC2 (kinesin light chain 2),SID134263298,0.31,0.48,1.12,0.43,0.54,active
KLC2 (kinesin light chain 2),SID134263300,0.63,2.23,2.58,-0.04,-0.05,inactive
KLC2 (kinesin light chain 2),SID135614340,0.61,0.73,0.88,0.57,0.8,inactive
SPDEF (SAM pointed domain containing ETS transcription factor),SID134285445,1.02,3.08,1.94,0.26,0.31,inactive
SPDEF (SAM pointed domain containing ETS transcription factor),SID134285446,0.69,1.3,1.24,0.63,0.59,inactive
SPDEF (SAM pointed domain containing ETS transcription factor),SID134285447,0.5,1,1.29,0.73,0.44,active
SPDEF (SAM pointed domain containing ETS transcription factor),SID134285448,0.56,2.08,2.41,0.21,0.09,inactive
ESS2 (ess-2 spliceosome associated protein),SID134256085,0.64,2,1.94,0.49,0.31,inactive
ESS2 (ess-2 spliceosome associated protein),SID134256087,0.33,1.17,2.17,0,0.04,active
ESS2 (ess-2 spliceosome associated protein),SID152148368,0.64,1.29,1.25,0.52,0.54,inactive
ESS2 (ess-2 spliceosome associated protein),SID152150943,0.65,1.17,1.1,0.4,0.6,inactive
